In PubChem BioAssay AID2551 (National Center for Advancing Translational Sciences (NCATS), 2010):
About 17,000 (5.5%) of roughly 310,000 compounds were called active. This list was built around the results that the source calls inconclusive (neither active nor inactive); the mix of calls is not that of the screen. Calls come from the whole dose curve; as a rule, active = well fitted inhibition curve with a large enough effect; inconclusive = small, poorly fitted or top-dose-only effect, or effect the other way; inactive = no such curve, though single readings can be large or run the other way. Potencies beside an inconclusive call are fits to weak or partial responses and may not hold up.

Chains of the proteins cited; added tags and fusions are not shown. Lines headed by an entry give the natural chain unless they say otherwise; changes in a name come on top.
UniProt P51450: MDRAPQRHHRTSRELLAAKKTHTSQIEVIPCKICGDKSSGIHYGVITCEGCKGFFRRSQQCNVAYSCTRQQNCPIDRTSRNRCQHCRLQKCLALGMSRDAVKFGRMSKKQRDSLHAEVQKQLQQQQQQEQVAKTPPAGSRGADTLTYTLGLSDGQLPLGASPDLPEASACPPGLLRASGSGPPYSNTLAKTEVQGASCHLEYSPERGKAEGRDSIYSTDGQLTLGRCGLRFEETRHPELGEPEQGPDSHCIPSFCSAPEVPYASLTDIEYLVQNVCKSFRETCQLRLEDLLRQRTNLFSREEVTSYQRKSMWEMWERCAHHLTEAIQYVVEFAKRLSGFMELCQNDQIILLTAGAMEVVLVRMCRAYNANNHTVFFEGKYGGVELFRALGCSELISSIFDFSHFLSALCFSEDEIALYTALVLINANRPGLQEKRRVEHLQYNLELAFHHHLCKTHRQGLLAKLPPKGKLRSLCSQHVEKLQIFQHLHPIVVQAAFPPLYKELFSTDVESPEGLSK

Target: Nuclear receptor ROR-gamma (Mus musculus) (UniProt P51450)
Test: qHTS for inhibitors of ROR gamma transcriptional activity; note: nearly all actives have a fitted effect of over 60% in size
Details: Drosophila S2 Gal4-RORgamma UAS-luciferase reporter, 20 h; activity change, negative = inhibition: at 53.6 µM (top of the series)
Method in brief: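 Stable Schneider cell line, Gal4 DNA-binding domain fused to ROR gamma, UAS-luciferase. Cmpd 1 hr RT → CuSO4 700 uM final → 20 hr RT → luciferase reagent 10 min → luminescence.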
% is set by controls: 0 for no effect and ±100 for the full control effect; potency is the fitted concentration of half-maximal effect.

Structure (SMILES) | Potency | activity change, negative = inhibition
O=C(NC(=S)N1CCCCCC1)c1ccccc1Cl | active: 0.794 µM | 
COc1ccc(C)cc1S(=O)(=O)N1CCCC(C(=O)N2CCN(c3ccccc3)CC2)C1 (centres undefined) | inconclusive: 3.55 µM [activator, full curve, poor fit] | 
COc1ccc(N2CCN(C3CCCN(C(=O)CCN4CCCCO4)C3)CC2)cc1 (centres undefined) |  | inactive: -2.85%
Cc1nc(C(=O)Nc2ccccc2Cl)cc2c1[nH]c1ccccc12 | inconclusive: 5.62 µM [inhibitor, single point] | 
COc1ccc(/C=c2\s/c(=C\C(=O)C(C)(C)C)[nH]c2=O)cc1O | inconclusive: 35.5 µM [inhibitor, single point] | 
c1cncc(-c2noc(-c3cccc4ccccc34)n2)c1 |  | inactive: 25.5%
CC(NS(=O)(=O)c1ccc(F)cc1)C(c1cccs1)N1CCOCC1 (centres undefined) | inconclusive: 35.5 µM [activator, single point] | 
CCOc1ccc(NC(=O)c2sc(N3CCOCC3)nc2-c2ccccc2)cc1 | inconclusive: 2.82 µM [activator, partial curve] | 
COc1ccc(C(=O)NC(=S)N2CCCCC2c2cccnc2)cc1OC (centres undefined) | active: 0.891 µM | 
O=C(NNS(=O)(=O)c1ccc(F)cc1F)C1Cc2c(ccc3ccccc23)O1 (centres undefined) | inconclusive: 11.2 µM [activator, single point] | 
CCC1CCCCN1CCn1c(=S)[nH]c2cc(OC)c(OC)cc2c1=O (centres undefined) | active: 10 µM | 
C=CCN1C(=O)C(CC(=O)Nc2ccccc2)SC1=Nc1ccc(S(N)(=O)=O)cc1 (centres undefined) | inconclusive: 31.6 µM [activator, single point] | 
CCCCNC(=S)NNC(=O)c1ccoc1C | active: 8.91 µM | 
CC1CCN(C(=O)CCN2C(=O)C3C4C=CC(C4)C3C2=O)CC1 (centres undefined) |  | inactive: -0.254%
COc1ccc(OCCN2C(=O)NC(C)(c3ccc(C)cc3)C2=O)cc1 (centres undefined) | inconclusive: 7.08 µM [activator, full curve, poor fit] | 
COc1ccc(-c2nc3ccccc3c(=O)[nH]2)cc1 | inconclusive: 22.4 µM [inhibitor, single point] | 
COC(=O)c1cc(Nc2cc(C)c3c(O)cccc3n2)cc(C(=O)OC)c1 | inconclusive: 5.01 µM [activator, partial curve] | 
O=C1CC(c2ccc(Cl)c([N+](=O)[O-])c2)c2ccc3ccccc3c2N1 (centres undefined) | inconclusive: 22.4 µM [activator, single point] | 
Cc1cccc(NC(=S)N2CCC(c3nc4ccccc4o3)CC2)c1 | active: 7.08 µM | 
Cc1nnc(C)c2c(C)n(-c3ccc(Br)cc3)c(C)c12 | inconclusive: 0.251 µM [activator, single point] | 
Cc1cccc(C(=O)NC(=S)NNC(=O)Cc2ccccc2)c1 | active: 10 µM | 
Cc1noc(C)c1C(=O)Nc1nc(C23CC4CC(CC(C4)C2)C3)cs1 | inconclusive: 12.6 µM [inhibitor, partial curve, poor fit] | 
Cc1cc(Nc2cccc(Cl)c2)nc(N2CCOCC2)n1 |  | inactive: 28.4%
COc1ccccc1OCC(=O)Nc1cc(Cl)ccc1Oc1ccccc1 | inconclusive: 12.6 µM [activator, single point] | 
CC(C)(C)n1nnnc1C(c1cccc(C#N)c1)N1CCCc2ccccc21 (centres undefined) |  | inactive: 2.56%

Ordered by formula weight (ascending): 14 of the compounds above
Structure (SMILES) | Potency | activity change, negative = inhibition
c1cncc(-c2noc(-c3cccc4ccccc34)n2)c1 |  | inactive: 25.5%
O=C(NC(=S)N1CCCCCC1)c1ccccc1Cl | active: 0.794 µM | 
Cc1cc(Nc2cccc(Cl)c2)nc(N2CCOCC2)n1 |  | inactive: 28.4%
Cc1cccc(C(=O)NC(=S)NNC(=O)Cc2ccccc2)c1 | active: 10 µM | 
COc1ccc(/C=c2\s/c(=C\C(=O)C(C)(C)C)[nH]c2=O)cc1O | inconclusive: 35.5 µM [inhibitor, single point] | 
Cc1nc(C(=O)Nc2ccccc2Cl)cc2c1[nH]c1ccccc12 | inconclusive: 5.62 µM [inhibitor, single point] | 
COc1ccc(OCCN2C(=O)NC(C)(c3ccc(C)cc3)C2=O)cc1 (centres undefined) | inconclusive: 7.08 µM [activator, full curve, poor fit] | 
COC(=O)c1cc(Nc2cc(C)c3c(O)cccc3n2)cc(C(=O)OC)c1 | inconclusive: 5.01 µM [activator, partial curve] | 
CC(C)(C)n1nnnc1C(c1cccc(C#N)c1)N1CCCc2ccccc21 (centres undefined) |  | inactive: 2.56%
CCC1CCCCN1CCn1c(=S)[nH]c2cc(OC)c(OC)cc2c1=O (centres undefined) | active: 10 µM | 
CC(NS(=O)(=O)c1ccc(F)cc1)C(c1cccs1)N1CCOCC1 (centres undefined) | inconclusive: 35.5 µM [activator, single point] | 
O=C(NNS(=O)(=O)c1ccc(F)cc1F)C1Cc2c(ccc3ccccc23)O1 (centres undefined) | inconclusive: 11.2 µM [activator, single point] | 
C=CCN1C(=O)C(CC(=O)Nc2ccccc2)SC1=Nc1ccc(S(N)(=O)=O)cc1 (centres undefined) | inconclusive: 31.6 µM [activator, single point] | 
COc1ccc(C)cc1S(=O)(=O)N1CCCC(C(=O)N2CCN(c3ccccc3)CC2)C1 (centres undefined) | inconclusive: 3.55 µM [activator, full curve, poor fit] | 

Following part.

Structure (SMILES) | Potency | activity change, negative = inhibition
CC(C)Cc1ccc(CN2CCCC(NC(=O)CCN3CCCCC3=O)C2)cc1 (centres undefined) |  | inactive: 6.96%
CSc1nc(N(C)C)c2ccccc2n1 | inconclusive: 8.91 µM [inhibitor, partial curve] | 
O=C(CCc1ccccn1)NC1CCCc2c1cnn2-c1ccc(F)cc1F (centres undefined) | inconclusive: 14.1 µM [activator, partial curve] | 
COc1ccc(OC)c(NC(=S)NCc2ccccc2OC)c1 | active: 7.08 µM | 
CCc1ccc(OCCNC(=O)c2ccccc2SCc2ccccc2)cc1 |  | inactive: 34%
CCOC(=O)c1sc(N(Cc2ccccc2)C(=O)CCl)nc1C | inconclusive: 25.1 µM [inhibitor, single point] | 
CC1(C)CC(=O)c2sc(NC(=O)c3ccco3)nc2C1 |  | inactive: -67.1%
Cc1ccc(O)c(-c2cc(C(=O)Nc3cccnc3)[nH]n2)c1 | inconclusive: 11.2 µM [activator, partial curve] | 
Cc1ccc(S(=O)(=O)NNC(=O)c2cccnc2)cc1 |  | inactive: -0.126%
COC(=O)c1c(NC(C)=O)sc2c1CCCC2 |  | inactive: -7.07%
COCCCn1c2nc3ccccc3nc2c2c(=O)n(-c3ccccc3OC)cnc21 |  | inactive: -10.7%
O=C(O)CCN1Cc2ccccc2C1=O |  | inactive: 0.838%
CCc1ccc(CN(C)Cc2nc(Cc3ccc(OC)c(OC)c3)no2)nc1 | active: 10 µM | 
COc1ccc(NC(=S)NCc2cccs2)c(OC)c1 | inconclusive: 35.5 µM [inhibitor, single point] | 
Oc1ccc(C(c2nnnn2C2CCCC2)N2CCc3ccccc3C2)cc1 (centres undefined) |  | inactive: -13.9%
CCOc1ccc(NS(=O)(=O)c2c(C)nc3sc(CC)nn3c2=O)cc1 | inconclusive: 22.4 µM [activator, single point] | 
Cc1cccc(C)c1NC1=NC(=S)N(c2ccccc2)C12CCOC(C)(C)C2 (centres undefined) | active: 3.98 µM | 
CC1(c2ccc(OCC#N)cc2)C=C(c2ccc(OCC#N)cc2)n2nc(C(F)(F)F)nc2N1 (centres undefined) | inconclusive: 10 µM [activator, partial curve, poor fit] | 
COc1ccccc1C(c1nnnn1CC1CCCO1)N1CCC(C(N)=O)CC1 (centres undefined) | inconclusive: 31.6 µM [activator, single point] | 
CC1(C(=O)NNC(=S)NCC2CCCO2)CC1(Cl)Cl (centres undefined) | inconclusive: 35.5 µM [inhibitor, single point] | 
CS(=O)(=O)N(CC(=O)NCCSc1ccccn1)c1cccc2ccccc12 | inconclusive: 2.82 µM [activator, partial curve] | 
Cc1ccccc1C(=O)c1cccn1CC(=O)NCc1ccc(F)cc1 | inconclusive: 20 µM [activator, single point] | 
O=C(Cn1c(=O)oc2cc(S(=O)(=O)N3CCCC3)ccc21)NCc1ccccn1 |  | inactive: 26.8%
CC(Sc1nnc(COc2ccc(Cl)cc2)n1-c1ccccc1)C(=O)O (centres undefined) |  | inactive: 25.1%
